The values below come from publication PMC9346556.

Chains of the proteins cited; added tags and fusions are not shown. Lines headed by an entry give the natural chain unless they say otherwise; changes in a name come on top.
UniProt P36874: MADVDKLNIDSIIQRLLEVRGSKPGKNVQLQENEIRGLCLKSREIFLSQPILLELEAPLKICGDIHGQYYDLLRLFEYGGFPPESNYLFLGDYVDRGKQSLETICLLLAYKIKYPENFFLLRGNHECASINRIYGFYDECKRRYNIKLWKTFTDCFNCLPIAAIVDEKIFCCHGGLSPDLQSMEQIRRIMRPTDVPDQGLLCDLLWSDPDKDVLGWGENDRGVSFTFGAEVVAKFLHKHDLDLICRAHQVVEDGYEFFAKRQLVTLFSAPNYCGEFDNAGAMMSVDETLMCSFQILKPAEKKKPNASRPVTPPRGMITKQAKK

These are yes or no findings as the source states them, for the method shown. Binding seen in cells or lysates may run through a third protein. Binding can be weak; no strength is given. Where a sequence is shown, tags or fusion partners need not be part of it.

This assay has as its target T1, PbLRR1 expressed in Xenopus oocytes from cRNA (PbLRR1-pGADT7 template), HA-tagged (P. berghei).
T1 sequence: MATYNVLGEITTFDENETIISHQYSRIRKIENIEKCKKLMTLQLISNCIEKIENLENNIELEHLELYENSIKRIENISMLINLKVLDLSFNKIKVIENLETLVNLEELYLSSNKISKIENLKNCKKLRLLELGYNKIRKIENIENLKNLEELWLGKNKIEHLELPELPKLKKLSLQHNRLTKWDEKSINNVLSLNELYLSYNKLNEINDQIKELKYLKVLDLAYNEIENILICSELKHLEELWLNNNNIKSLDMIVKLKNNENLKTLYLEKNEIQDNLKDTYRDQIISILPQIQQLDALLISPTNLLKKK
Kind of assay: co-IP; Xenopus oocytes pre-injected with peptides (100 ng), control peptide P0 or PBS 1 h before PbLRR1 cRNA; extracts precipitated with anti-PP1 mAb (blot anti-HA) and with anti-HA (blot anti-PP1).

As for “Xenopus PP1 catalytic subunit (XePP1c), endogenous in oocytes (from UniProt P36874) (enzyme)”, the binding result was “binds”.
